Results deposited as PubChem BioAssay AID1508597 (Cure First, 2020)
The deposit covers about 2,100 reagents; this is an unselected part. 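Calls flag viability under 80% in either arm, not effects specific to rucaparib; the reference for percent is not stated.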 A reagent listed more than once was tested more than once; the source does not tell the runs apart. The record does not give: the 100% reference.

Purpose: 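Survival screen with siRNA in ovarian cancer cells derived from patients, with or without rucaparib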 (primary screen)
Cells: human ovarian carcinoma lines grown from tumours: OCI-P5x (papillary serous) and OCI-C5x (clear cell)
Reagents: siRNA pool against human genes, 1.25 pmol siRNA per well
Time to read-out: 72 h or 96 h, depending on the cell culture
Conditions: rucaparib 20 µM (about IC30) or vehicle, present until read-out
Measurement: 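Luminescent ATP-based viability assay read 72 or 96 h after transfection, depending on culture, given as normalised percent viability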
Direction: viability, normalised: higher = more viable cells remaining
Active means: 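Active when normalised viability falls below 80 percent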
Calls: active = viability under 80%; inactive = viability 80% or more

The opening 4 records as a preview:
no.	target	rucaparib or vehicle	cell line	technical replicate	viability, normalised (%)	Call
1	DNA2	Rucaparib	OCI-C5x (clear cell)	1	83	inactive
2	DNA2	Rucaparib	OCI-C5x (clear cell)	2	99.7	inactive
3	DNA2	Rucaparib	OCI-C5x (clear cell)	3	89.5	inactive
4	DNA2	Rucaparib	OCI-P5x (serous)	1	104	inactive

The listing, from the start:
no.	target	rucaparib or vehicle	cell line	technical replicate	viability, normalised (%)	Call
1	DNA2	Rucaparib	OCI-C5x (clear cell)	1	83	inactive
2	DNA2	Rucaparib	OCI-C5x (clear cell)	2	99.7	inactive
3	DNA2	Rucaparib	OCI-C5x (clear cell)	3	89.5	inactive
4	DNA2	Rucaparib	OCI-P5x (serous)	1	104	inactive
5	DNA2	Rucaparib	OCI-P5x (serous)	2	85.6	inactive
6	DNA2	Rucaparib	OCI-P5x (serous)	3	95.3	inactive
7	DNA2	Vehicle	OCI-C5x (clear cell)	1	74.8	active
8	DNA2	Vehicle	OCI-C5x (clear cell)	2	71.9	active
9	DNA2	Vehicle	OCI-C5x (clear cell)	3	57.1	active
10	DNA2	Vehicle	OCI-P5x (serous)	1	81.8	inactive
11	DNA2	Vehicle	OCI-P5x (serous)	2	77.6	active
12	DNA2	Vehicle	OCI-P5x (serous)	3	79.4	active
13	NCOA6	Rucaparib	OCI-C5x (clear cell)	1	45.6	active
14	NCOA6	Rucaparib	OCI-C5x (clear cell)	2	53.8	active
15	NCOA6	Rucaparib	OCI-C5x (clear cell)	3	39.3	active
16	NCOA6	Rucaparib	OCI-P5x (serous)	1	66	active
17	NCOA6	Rucaparib	OCI-P5x (serous)	2	69.2	active
18	NCOA6	Rucaparib	OCI-P5x (serous)	3	81.2	inactive
19	NCOA6	Vehicle	OCI-C5x (clear cell)	1	32.3	active
20	NCOA6	Vehicle	OCI-C5x (clear cell)	2	35.8	active
21	NCOA6	Vehicle	OCI-C5x (clear cell)	3	40.4	active
22	NCOA6	Vehicle	OCI-P5x (serous)	1	74.9	active
23	NCOA6	Vehicle	OCI-P5x (serous)	2	61.9	active
24	NCOA6	Vehicle	OCI-P5x (serous)	3	70.3	active
25	UBR7	Rucaparib	OCI-C5x (clear cell)	1	77.3	active
26	UBR7	Rucaparib	OCI-C5x (clear cell)	2	74.3	active
27	UBR7	Rucaparib	OCI-C5x (clear cell)	3	77.6	active
28	UBR7	Rucaparib	OCI-P5x (serous)	1	52	active
29	UBR7	Rucaparib	OCI-P5x (serous)	2	54.9	active
30	UBR7	Rucaparib	OCI-P5x (serous)	3	63.6	active
31	UBR7	Vehicle	OCI-C5x (clear cell)	1	54.9	active
32	UBR7	Vehicle	OCI-C5x (clear cell)	2	51.3	active
33	UBR7	Vehicle	OCI-C5x (clear cell)	3	75	active
34	UBR7	Vehicle	OCI-P5x (serous)	1	74.7	active
35	UBR7	Vehicle	OCI-P5x (serous)	2	49.7	active
36	UBR7	Vehicle	OCI-P5x (serous)	3	75.6	active
37	H4C1	Rucaparib	OCI-C5x (clear cell)	1	46.6	active
38	H4C1	Rucaparib	OCI-C5x (clear cell)	1	62.6	active
39	H4C1	Rucaparib	OCI-C5x (clear cell)	2	46.6	active
40	H4C1	Rucaparib	OCI-C5x (clear cell)	2	61.5	active
41	H4C1	Rucaparib	OCI-C5x (clear cell)	3	39.9	active
42	H4C1	Rucaparib	OCI-C5x (clear cell)	3	66.9	active
43	H4C1	Rucaparib	OCI-P5x (serous)	1	78.5	active
44	H4C1	Rucaparib	OCI-P5x (serous)	1	76.9	active
45	H4C1	Rucaparib	OCI-P5x (serous)	2	64.1	active
46	H4C1	Rucaparib	OCI-P5x (serous)	2	72.3	active
47	H4C1	Rucaparib	OCI-P5x (serous)	3	93.8	inactive
48	H4C1	Rucaparib	OCI-P5x (serous)	3	63	active
49	H4C1	Vehicle	OCI-C5x (clear cell)	1	42.3	active
50	H4C1	Vehicle	OCI-C5x (clear cell)	1	42	active
51	H4C1	Vehicle	OCI-C5x (clear cell)	2	46.9	active
52	H4C1	Vehicle	OCI-C5x (clear cell)	2	50.1	active
53	H4C1	Vehicle	OCI-C5x (clear cell)	3	42.8	active
54	H4C1	Vehicle	OCI-C5x (clear cell)	3	44.8	active
55	H4C1	Vehicle	OCI-P5x (serous)	1	77.2	active
56	H4C1	Vehicle	OCI-P5x (serous)	1	89.8	inactive
57	H4C1	Vehicle	OCI-P5x (serous)	2	55.5	active
58	H4C1	Vehicle	OCI-P5x (serous)	2	66.1	active
59	H4C1	Vehicle	OCI-P5x (serous)	3	94.4	inactive
60	H4C1	Vehicle	OCI-P5x (serous)	3	76.7	active
